Reference: PMC6746701, “A phyB-PIF1-SPA1 kinase regulatory complex promotes photomorphogenesis in Arabidopsis” (Nature Communications, 2019)
These are yes or no findings as the source states them, for the method shown. For some of these results: Binding seen in cells or lysates may run through a third protein. Some results given as binding are weak or reduced against the parent protein; the word gives no strength. For some of these results: Sequences can lack the tags named with a protein.

Chains of the proteins cited; added tags and fusions are not shown. Lines headed by an entry give the natural chain unless they say otherwise; changes in a name come on top. Residues count along the entry.
UniProt P14713: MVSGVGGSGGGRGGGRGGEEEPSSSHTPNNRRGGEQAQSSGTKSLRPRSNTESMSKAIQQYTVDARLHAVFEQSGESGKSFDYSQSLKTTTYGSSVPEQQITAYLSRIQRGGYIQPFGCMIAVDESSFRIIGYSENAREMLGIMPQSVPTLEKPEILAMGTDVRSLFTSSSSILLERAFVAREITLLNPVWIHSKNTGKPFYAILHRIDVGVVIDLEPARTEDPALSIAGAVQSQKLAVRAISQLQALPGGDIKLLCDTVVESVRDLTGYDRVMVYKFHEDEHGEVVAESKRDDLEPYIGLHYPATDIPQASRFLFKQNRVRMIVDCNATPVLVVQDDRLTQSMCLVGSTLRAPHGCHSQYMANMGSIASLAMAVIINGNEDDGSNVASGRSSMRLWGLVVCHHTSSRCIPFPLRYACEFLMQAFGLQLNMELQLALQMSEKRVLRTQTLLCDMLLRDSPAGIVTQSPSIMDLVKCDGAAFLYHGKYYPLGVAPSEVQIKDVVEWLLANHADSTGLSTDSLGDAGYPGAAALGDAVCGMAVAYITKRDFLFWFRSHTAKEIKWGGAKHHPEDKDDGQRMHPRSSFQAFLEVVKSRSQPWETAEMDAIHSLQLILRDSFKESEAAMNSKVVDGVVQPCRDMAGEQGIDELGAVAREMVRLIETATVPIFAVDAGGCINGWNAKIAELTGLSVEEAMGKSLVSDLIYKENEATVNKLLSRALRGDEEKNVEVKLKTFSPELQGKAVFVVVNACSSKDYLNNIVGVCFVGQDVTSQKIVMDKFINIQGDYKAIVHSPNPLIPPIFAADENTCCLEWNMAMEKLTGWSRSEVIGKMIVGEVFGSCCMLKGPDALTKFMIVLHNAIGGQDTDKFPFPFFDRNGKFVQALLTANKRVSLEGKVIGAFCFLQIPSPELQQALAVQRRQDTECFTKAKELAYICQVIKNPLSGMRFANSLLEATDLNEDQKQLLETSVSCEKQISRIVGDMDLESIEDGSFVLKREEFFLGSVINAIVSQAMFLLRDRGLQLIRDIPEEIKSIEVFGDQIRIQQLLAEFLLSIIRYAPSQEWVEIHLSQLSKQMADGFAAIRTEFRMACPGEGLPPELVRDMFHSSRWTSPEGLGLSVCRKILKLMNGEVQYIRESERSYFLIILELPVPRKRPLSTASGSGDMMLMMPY
phyB-GFP ΔC purified from yeast (Saccharomyces cerevisiae): residues 1-1092 of P14713
LexA-PHYB CT (aa 625-1172): residues 625-1172 of P14713

T1: GST-PIF1-strep (Arabidopsis) (UniProt Q8GZM7)
T1 sequence: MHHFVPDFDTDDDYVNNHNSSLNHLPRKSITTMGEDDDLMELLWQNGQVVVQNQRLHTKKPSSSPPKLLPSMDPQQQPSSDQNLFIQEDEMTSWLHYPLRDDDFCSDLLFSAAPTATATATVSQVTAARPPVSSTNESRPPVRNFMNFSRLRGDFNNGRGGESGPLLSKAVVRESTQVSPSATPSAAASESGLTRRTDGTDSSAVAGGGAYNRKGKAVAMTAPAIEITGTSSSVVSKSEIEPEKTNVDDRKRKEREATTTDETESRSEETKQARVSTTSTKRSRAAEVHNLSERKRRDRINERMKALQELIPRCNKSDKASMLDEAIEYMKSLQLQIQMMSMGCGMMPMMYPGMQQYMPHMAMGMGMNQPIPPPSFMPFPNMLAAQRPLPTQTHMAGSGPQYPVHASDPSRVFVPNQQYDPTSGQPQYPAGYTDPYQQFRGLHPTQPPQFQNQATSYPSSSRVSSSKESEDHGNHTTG


How the values were obtained:
[1] = biological target: LexA-PHYB CT (aa 625-1172) (Arabidopsis) (UniProt P14713); assay: two-hybrid; dimerisation of phyB C-terminal fragments in yeast (Supplementary Fig. 8c); vectors not told
[2] = biological target: LexA-PHYB CT ΔC (aa 625-1092) (Arabidopsis) (UniProt P14713); assay: as above
[3] = biological target: phyB-GFP ΔC purified from yeast (Saccharomyces cerevisiae) (Arabidopsis) (UniProt P14713); assay: pull-down; in vitro: phyB-GFP FL or ΔC purified from yeast and MBP-SPA1 expressed from E. coli; light-dependent; only the target purified
[4] = biological target: T1, GST-PIF1-strep (Arabidopsis); assay: pull-down; tripartite complex: 2 µg GST-PIF1-strep on GST agarose beads, cleared E. coli lysate with MBP-SPA1, without or with 1-2 µg purified phyB; 50 mM Tris pH 7.5, 150 mM NaCl, 0.1% Tween 20; anti-MBP blot; only the target purified

Row | Molecule | binding [1] | binding [2] | binding [3] | binding [4]
1 | LexA-PHYB CT ΔC (aa 625-1092) (from UniProt P14713 625-1092) (domain or fragment) | binds | no binding | – | –
2 | MBP-SPA1 (protein, UniProt Q9SYX2 1-1029) MPVMERVAEETVATNNIQLKARVDDVPCNKLDARHNDMVIQSETANSDCPGSSAHRNVDLTKPPPPEEAAGAKLSVEELTLGNYRIVQGSNNTNVDSPRAGKFEHLYRLARGSAFRAGDGDLDSQPRDMDQMLSRIRQQLAGAPSERQNLKPFMSRRSDQNLEAFSERLRAAGENSIMNAPALISEGVQMKTPVSSSNFSQLLLKRAMKGKGVVGKNQETPPEFVSDQDLGSKEKKLDISKSPTPHDVLPLKSSPKGNGMVSHGDGNHSKSSIGISLREFLRSSYAKREKRHGLCLFRQLVELVDSAHSKRLFLLDLRPSLFTLVPSKKLRYIGNFGKNDLESDVDEDLNRRRPVVEESSSGGRDSKKRKMDLHLNSPGNQLQATSTGRPFKRKSPVIDLNMVDARNPDSCELQQQDYIKNLSVSSVSRKQSMSTWLEEQWYTCPEEINGEDIGEKSNIYALGVLLFELLCHCESGEMHAAMMADLRHRILPPTFLSKYPKEAGFCLWLLHPEPSSRPSARDILKSELICEDDSVKSTAAAEEISELLLHFLSSLEVQKKKKASKLLQDIQTLEDDIKEAERRYSSNVSLVRSHGAIEKRVQSSPLDEHCTTSSALFVPTANTDRLMSNIRQLEDAYFFMRSQINLSSSAATARSDKTLKDRDRCSENQNENQDMSTKGKSSDQLEVFFEGLCKFARYSKFETCGTIRSGDLLNSASVVCSLSFDPDEEHIAAAGISKKIKIFDFNAFMNESVGVHYPLVEMVNKSKLSCVCWNSYIKNYLASTDYDGVVQIWDAGTGQGFSQYTEHQKRAWSVDFSPSDPTKFVSGSDDCSVKLWSINEKRSLGTIWSPANVCCVQFSSYSNHLLAFGSADYKVYCYDLRYVKTPWCTLAGHEKAVSYVKFMDSETIVSASTDNSLKLWNLNKTNSSGLSPGACSLTYKGHTNQKNFVGLSVLDGYIACGSETNEVYSYYKSLPMPMTSYKFGSVDPISGNEYFDDNGQFVSSVCWRKKSNMLVAANSTGNMKLLKLV | – | – | no binding | binds
